Results reported in US8759301B2, “Gene fusion targeted therapy” (The Regents of The University of Michigan, priority 2010, dated 2014).
Like-named read-outs stand apart in the source and are kept apart here. Further values from the same series stand in other lists.

The chains behind the UniProt entries cited, without tags or fusion partners. Where a name states a change or a piece, a line headed by the entry shows the natural chain unless it says otherwise.
UniProt P10275: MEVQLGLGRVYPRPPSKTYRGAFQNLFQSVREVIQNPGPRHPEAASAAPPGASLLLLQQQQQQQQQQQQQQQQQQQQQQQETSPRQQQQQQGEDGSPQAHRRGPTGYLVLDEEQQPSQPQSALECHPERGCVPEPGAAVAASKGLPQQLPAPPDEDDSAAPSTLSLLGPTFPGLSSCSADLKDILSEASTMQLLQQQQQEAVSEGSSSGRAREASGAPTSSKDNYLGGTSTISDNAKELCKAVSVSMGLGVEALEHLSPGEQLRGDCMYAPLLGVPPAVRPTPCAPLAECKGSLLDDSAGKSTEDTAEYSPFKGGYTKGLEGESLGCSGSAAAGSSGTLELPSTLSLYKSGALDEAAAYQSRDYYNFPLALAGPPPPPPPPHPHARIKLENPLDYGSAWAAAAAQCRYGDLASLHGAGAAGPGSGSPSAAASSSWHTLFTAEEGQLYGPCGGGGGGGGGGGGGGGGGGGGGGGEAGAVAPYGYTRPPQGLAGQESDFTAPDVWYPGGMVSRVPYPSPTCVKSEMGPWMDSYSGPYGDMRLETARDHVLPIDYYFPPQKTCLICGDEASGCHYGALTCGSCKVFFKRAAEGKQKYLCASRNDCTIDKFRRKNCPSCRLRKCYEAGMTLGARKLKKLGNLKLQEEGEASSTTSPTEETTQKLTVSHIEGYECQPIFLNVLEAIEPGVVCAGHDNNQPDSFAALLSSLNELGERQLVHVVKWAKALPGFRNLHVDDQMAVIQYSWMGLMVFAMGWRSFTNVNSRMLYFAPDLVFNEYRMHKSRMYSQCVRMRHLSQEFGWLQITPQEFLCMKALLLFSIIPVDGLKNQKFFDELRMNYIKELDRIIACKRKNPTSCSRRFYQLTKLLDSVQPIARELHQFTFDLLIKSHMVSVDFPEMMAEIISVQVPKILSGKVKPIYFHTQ

Biological target: AR (Homo sapiens, UniProt P10275)
Details: VCaP R1881-treated
Description: For ERG ChIP, LNCaP, VCaP, RWPE+ERG, and RWPE+GUS cells grown in corresponding regular medium were used.
ChIP samples were prepared for sequencing using the Genomic DNA sample prep kit (Illumina) following manufacturers protocols. ChIP-Sequencing was performed using Illumina Genome Analyzer according to standard manufacturer's procedures. The raw sequencing image data were analyzed by the Illumina analysis pipeline, aligned to the unmasked human reference genome (NCBI v36, hg18) using the ELAND software (Illumina) to generate sequence reads of 25-32 bps.
It was first counted how many uniquely mapped reads are there in each sample and the ratio of the two counts was used as the normalizing factor to bring the total number of useable reads to the same level in both samples. Next each uniquely mapped read was extended directionally to form a 200 bp hypothetical DNA fragment (HDF) in each sample. 200 is assumed to be the average length of size-selected DNA pieces during sample preparation (175-225 bp).
Under the null hypothesis of no enrichment in the stimulated sample versus unstimulated samples, reads from both samples are assumed to land on the genome following the same Poisson distribution (after corrected for the read counts in the unstimulated sample). The average sequencing depth across the whole genome is used as the background rate estimate r0. The probability of observing the read difference between two samples in each coverage region was calculated numerically.
HMM was applied to define where enriched regions start and end. To be specific, the entire genome was partitioned into 25 bp bin and the read coverage is counted in each bin in the two samples. The two states are enriched region and background. The observed data are HDF coverage difference. In the enriched regions, it was expected that enrichment of HDFs would be present in the stimulated sample but not in the unstimulated samples. Therefore the differences are assumed to be the result of two different Poisson distributions with rates r1 and r2, r1>r2. In background, the differences are assumed to come from two identical Poisson distribution with rate r0. The transition probabilities are estimated empirically. From the output of HMM, regions are selected based on posterior probability of being in the enriched regions.

C[C@]1(O)CC[C@H]2[C@@H]3CCC4=CC(=O)CCC4=C3C=C[C@@]21C [R1881, methyltrienolone]
number of AR binding sites (distance to TSS 7 kb): 87
number of AR binding sites (distance to TSS 8 kb): 82
number of AR binding sites (distance to TSS 9 kb): 89
number of AR binding sites (distance to TSS 10 kb): 69
number of AR binding sites (distance to TSS 11 kb): 59
number of AR binding sites (distance to TSS 12 kb): 69
number of AR binding sites (distance to TSS 13 kb): 62
number of AR binding sites (distance to TSS 14 kb): 67
number of AR binding sites (distance to TSS 15 kb): 56
number of AR binding sites (distance to TSS 16 kb): 49
number of AR binding sites (distance to TSS 17 kb): 57
number of AR binding sites (distance to TSS 18 kb): 55
number of AR binding sites (distance to TSS 19 kb): 38
number of AR binding sites (distance to TSS 20 kb): 49
number of AR binding sites (distance to TSS 21 kb): 42
number of AR binding sites (distance to TSS 22 kb): 45
number of AR binding sites (distance to TSS 23 kb): 47
number of AR binding sites (distance to TSS 24 kb): 48
number of AR binding sites (distance to TSS 25 kb): 34
number of AR binding sites (distance to TSS 26 kb): 47
number of AR binding sites (distance to TSS 27 kb): 46
number of AR binding sites (distance to TSS 28 kb): 49
number of AR binding sites (distance to TSS 29 kb): 28
number of AR binding sites (distance to TSS 30 kb): 37
number of AR binding sites (distance to TSS 31 kb): 31
number of AR binding sites (distance to TSS 32 kb): 40
number of AR binding sites (distance to TSS 33 kb): 42
number of AR binding sites (distance to TSS 34 kb): 27
number of AR binding sites (distance to TSS 35 kb): 22
number of AR binding sites (distance to TSS 36 kb): 33
number of AR binding sites (distance to TSS 37 kb): 34
number of AR binding sites (distance to TSS 38 kb): 25
number of AR binding sites (distance to TSS 39 kb): 31
number of AR binding sites (distance to TSS 40 kb): 33
number of AR binding sites (distance to TSS 41 kb): 21
number of AR binding sites (distance to TSS 42 kb): 26
number of AR binding sites (distance to TSS 43 kb): 22
number of AR binding sites (distance to TSS 44 kb): 19
number of AR binding sites (distance to TSS 45 kb): 31
number of AR binding sites (distance to TSS 46 kb): 20
number of AR binding sites (distance to TSS 47 kb): 22
number of AR binding sites (distance to TSS 48 kb): 22
number of AR binding sites (distance to TSS 49 kb): 26
number of AR binding sites (distance to TSS 50 kb): 22
number of AR binding sites (distance to TSS 51 kb): 23
number of AR binding sites (distance to TSS 52 kb): 20
number of AR binding sites (distance to TSS 53 kb): 20
number of AR binding sites (distance to TSS 54 kb): 16
number of AR binding sites (distance to TSS 55 kb): 16
number of AR binding sites (distance to TSS 56 kb): 24
number of AR binding sites (distance to TSS 57 kb): 14
number of AR binding sites (distance to TSS 58 kb): 25
number of AR binding sites (distance to TSS 59 kb): 16
number of AR binding sites (distance to TSS 60 kb): 19
number of AR binding sites (distance to TSS 61 kb): 24
number of AR binding sites (distance to TSS 62 kb): 20
number of AR binding sites (distance to TSS 63 kb): 18
number of AR binding sites (distance to TSS 64 kb): 11
number of AR binding sites (distance to TSS 65 kb): 15
number of AR binding sites (distance to TSS 66 kb): 20
number of AR binding sites (distance to TSS 67 kb): 19
number of AR binding sites (distance to TSS 68 kb): 15
number of AR binding sites (distance to TSS 69 kb): 18
number of AR binding sites (distance to TSS 70 kb): 16
number of AR binding sites (distance to TSS 71 kb): 11
number of AR binding sites (distance to TSS 72 kb): 22
number of AR binding sites (distance to TSS 73 kb): 19
number of AR binding sites (distance to TSS 74 kb): 12
number of AR binding sites (distance to TSS 75 kb): 18
number of AR binding sites (distance to TSS 76 kb): 19
number of AR binding sites (distance to TSS 77 kb): 15
number of AR binding sites (distance to TSS 78 kb): 18
number of AR binding sites (distance to TSS 79 kb): 19
number of AR binding sites (distance to TSS 80 kb): 7
number of AR binding sites (distance to TSS 81 kb): 15
number of AR binding sites (distance to TSS 82 kb): 9
number of AR binding sites (distance to TSS 83 kb): 19
number of AR binding sites (distance to TSS 84 kb): 12
number of AR binding sites (distance to TSS 85 kb): 10
number of AR binding sites (distance to TSS 86 kb): 12
number of AR binding sites (distance to TSS 87 kb): 18
number of AR binding sites (distance to TSS 88 kb): 8
number of AR binding sites (distance to TSS 89 kb): 8
number of AR binding sites (distance to TSS 90 kb): 11
number of AR binding sites (distance to TSS 91 kb): 16
number of AR binding sites (distance to TSS 92 kb): 14
number of AR binding sites (distance to TSS 93 kb): 10
number of AR binding sites (distance to TSS 94 kb): 6
number of AR binding sites (distance to TSS 95 kb): 19
number of AR binding sites (distance to TSS 96 kb): 9
number of AR binding sites (distance to TSS 97 kb): 5
number of AR binding sites (distance to TSS 98 kb): 11
number of AR binding sites (distance to TSS 99 kb): 12
number of AR binding sites (distance to TSS 100 kb): 7
number of AR binding sites (distance to TSS 101 kb): 18
number of AR binding sites (distance to TSS 102 kb): 10
